Measured data: PubChem BioAssay AID1259272 (Sanger Institute, 2017)

Assay: 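Kinome-wide siRNA search for genes whose silencing boosts targeted drug effects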 (primary screen)
Cells: SW1116 human colorectal cancer cells
Knock-down reagent: siRNA pool against human genes
Challenge: anchor drugs BYL719 (1 µM), cetuximab (5 µg/ml) or trametinib (10 nM), or DMSO vehicle; exposure length not given
Measured: 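Cell survival as a fraction of wells given a non-targeting pool, averaged over replicates; robust z-score without drug; synergy score for each of BYL719, cetuximab and trametinib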
Direction: viability z-score, no drug: higher = more cells remaining; strongly negative means essential gene; viability, no drug: higher = more viable cells
Rule for the call: 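Called essential if the drug-free knock-down gives a robust viability z-score below -3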
Calls: active = essential (knock-down alone); inactive = no change
The deposit covers 794 reagents; below is a random part of them. 7 of all reagents (0.88%) were called active. 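Essential calls reflect knock-down without drug only, not synergy with drugs; drug exposure length not given.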 Unmarked entries are inactive. No viability above 1 is reported: the scale is capped. Not all columns of the deposit are shown. Not given: the amount of reagent, the time to read-out.

gene	PubChem SID	viability z-score, no drug	viability, no drug (fraction of control)
MAPK4	SID152148838	-1.53	0.748
CDK14	SID56478888	-1.53	0.748
RPS6KA1	SID152152227	0.624	0.977
PXK	SID152149443	0.416	0.955
CLK4	SID56478876	0.582	0.972
PAK4	SID152147637	0.464	0.96
LYN	SID135620625	0.842	1
CREBBP	SID152156768	-0.433	0.864
PANK1	SID56478765	0.842	1
PRKAG2	SID135621825	0.842	1
NEK4	SID152155431	-1.13	0.79
CAMK2D	SID56478759	0.842	1
CDKN1B	SID56478655	0.41	0.954
XYLB	SID152153831	-1.24	0.779
APC	SID152153239	-1.12	0.791
IPMK	SID152147042	0.842	1
GATA3	SID134310077	0.229	0.935
ROCK1	SID152156760	0.842	1
RBM10	SID134313901	-0.905	0.814
PTK2B	SID56478543	-0.627	0.844
HK1	SID56479165	-0.214	0.888
MAPKAPK3	SID56478946	0.141	0.925
RPS6KB1	SID152147142	-1.69	0.731
MAPK7	SID56478666	0.842	1
TK2	SID152153963	0.842	1
CSNK1G1	SID152156369	-0.0626	0.904
CSNK1G3	SID152152817	0.37	0.95
JAK1	SID152154758	0.19	0.931
BRAF	SID152153735	-0.177	0.891
CALM1	SID152156420	0.842	1
PAK3	SID56478716	-0.592	0.847
ABL2	SID152153611	0.842	1

Taken from above:
Under “viability z-score, no drug”, NEK4 [SID152155431] shows -1.13
RPS6KA1 [SID152152227], viability z-score, no drug = 0.624
MAPK4 [SID152148838], viability z-score, no drug: -1.53
Value for CALM1 [SID152156420] under “viability z-score, no drug”: 0.842
CSNK1G1 [SID152156369], viability, no drug (fraction of control): 0.904

The results go on.
gene	PubChem SID	viability z-score, no drug	viability, no drug (fraction of control)
CDK20	SID152152456	-2.21	0.675
DYRK3	SID152153037	0.842	1
PHKA2	SID56479176	-1.83	0.715
PIK3CA	SID135620605	0.312	0.944
TAF1L	SID152155360	-0.191	0.89
FYN	SID135620621	-0.0747	0.902
NADK	SID152150245	-1.9	0.707
ALDH18A1	SID152152799	0.842	1
MAPK8	SID135620691	0.842	1
MAK	SID56478884	-0.549	0.852
PIK3R4	SID135620923	-0.488	0.858
STK24	SID135620898	0.343	0.947
CDK1	SID56478584	0.842	1
CERK	SID152152071	0.842	1
PTK6	SID152152810	0.421	0.955
DCLK2	SID152154613	-0.12	0.898
STK39	SID152151246	-1.95	0.703
CLK3	SID56478875	-0.193	0.89
